pIC50: −log10 of the molar value. Some entries share one result that the patent states for a list of compounds.
What was measured:
BRSK = tested on: T1, BRSK; test: HTRF screening method for BRSK inhibitors; type: biochemical, human; conditions: dual BRSK/MARK inhibitors; read-out: IC50 towards BRSK
T1 construct: BRSK1 (human, recombinant)|Upstate; BRSK2 (human, recombinant)|University of Dundee

Protein sequences, listed by entry. Tags and fused reporters are not part of them. Lines headed by an entry give the natural chain unless they say otherwise; changes in a name come on top.
UniProt P27448: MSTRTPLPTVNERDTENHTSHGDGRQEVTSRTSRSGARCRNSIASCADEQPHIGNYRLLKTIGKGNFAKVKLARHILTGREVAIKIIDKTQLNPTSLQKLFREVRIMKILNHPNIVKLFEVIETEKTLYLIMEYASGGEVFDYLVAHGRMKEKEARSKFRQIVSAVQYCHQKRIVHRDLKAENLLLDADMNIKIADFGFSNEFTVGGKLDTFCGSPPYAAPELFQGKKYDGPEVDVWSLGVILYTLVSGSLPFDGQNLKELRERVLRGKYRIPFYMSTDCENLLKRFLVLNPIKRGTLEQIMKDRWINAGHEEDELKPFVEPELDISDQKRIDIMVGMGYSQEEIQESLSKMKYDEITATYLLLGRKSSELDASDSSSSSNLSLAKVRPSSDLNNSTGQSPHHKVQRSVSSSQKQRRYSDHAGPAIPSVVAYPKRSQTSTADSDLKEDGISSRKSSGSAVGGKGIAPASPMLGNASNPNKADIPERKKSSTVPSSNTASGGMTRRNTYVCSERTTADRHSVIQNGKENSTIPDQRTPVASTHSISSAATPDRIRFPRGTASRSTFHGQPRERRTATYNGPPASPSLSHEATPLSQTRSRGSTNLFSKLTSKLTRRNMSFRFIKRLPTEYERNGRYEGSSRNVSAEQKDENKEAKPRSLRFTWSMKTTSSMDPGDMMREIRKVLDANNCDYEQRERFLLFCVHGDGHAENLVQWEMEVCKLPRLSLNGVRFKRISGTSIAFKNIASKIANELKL

MARK3 = MARK3 (Homo sapiens, UniProt P27448); test: Counterscreen against MARK3 (analogous method, kinase substituted for BRSK); type: biochemical; conditions: for pIC50: dual BRSK/MARK inhibitors, read-out: IC50 towards MARK3; for selectivity for BRSK over MARK: criterion: IC50 MARK >1 μM and/or at least 4-fold greater than IC50 BRSK

| pIC50 (BRSK) | pIC50 (MARK3) | selectivity for BRSK over MARK (MARK3) | Compound |
| --- | --- | --- | --- |
| > 6.30 | > 6.30 |  | N#Cc1ccc2c(-c3cc4cc(CN5CCNCC5)ccc4[nH]3)n[nH]c2c1 [Example 2, 3-[5-(piperazin-1-ylmethyl)-1H-indol-2-yl]-1H-indazole-6-carbonitrile] |
|  |  | selectivity for BRSK | c1cc2[nH]c(-c3n[nH]c4cc(C5=NCCO5)ccc34)cc2cc1CN1CCOCC1 [Example 15, 6-(4,5-dihydro-1,3-oxazol-2-yl)-3-[5-(morpholin-4-ylmethyl)-1H-indol-2-yl]-1H-indazole] |
| > 6.30 | > 6.30 |  | N#Cc1ccc2c(-c3cc4cc(CN5CCOCC5)ccc4[nH]3)n[nH]c2c1 [Example 8, 3-[5-(morpholin-4-ylmethyl)-1H-indol-2-yl]-1H-indazole-6-carbonitrile] |
| > 6.30 | > 6.30 |  | N#Cc1ccc2c(-c3cc4c(CNC5CCN(Cc6ccncc6)CC5)cccc4[nH]3)n[nH]c2c1 [Example 6, 3-[4-({[1-(pyridin-4-ylmethyl)piperidin-4-yl]amino}methyl)-1H-indol-2-yl]-1H-indazole-6-carbonitrile] |
| > 6.30 | > 6.30 |  | CN1CCC(CNCc2cccc3[nH]c(-c4n[nH]c5cc(C#N)ccc45)cc23)CC1 [Example 7, 3-[4-({[(1-methylpiperidin-4-yl)methyl]amino}methyl)-1H-indol-2-yl]-1H-indazole-6-carbonitrile] |
|  |  | selectivity for BRSK | COC(=O)CC(C)N1CCN(Cc2cccc3[nH]c(-c4n[nH]c5cc(Cl)ccc45)cc23)CC1 (stereo not drawn) [Example 10, Methyl 3-(4-{[2-(6-chloro-1H-indazol-3-yl)-1H-indol-4-yl]methyl}piperazin-1-yl)butanoate] |
| > 6.30 | > 6.30 |  | CC(C)(C)SCCNCc1cccc2[nH]c(-c3n[nH]c4cc(C#N)ccc34)cc12 [Example 9, 3-[4-({[2-(tert-butylthio)ethyl]amino}methyl)-1H-indol-2-yl]-1H-indazole-6-carbonitrile] |
|  |  | selectivity for BRSK | COC(=O)c1ccc2c(-c3cc4cc(CN5CCOCC5)ccc4[nH]3)n[nH]c2c1 [Example 13, Methyl 3-[5-(morpholin-4-ylmethyl)-1H-indol-2-yl]-1H-indazole-6-carboxylate] |
|  |  | selectivity for BRSK | CNC(=O)c1ccc2c(-c3cc4cc(CN5CCOCC5)ccc4[nH]3)n[nH]c2c1 [Example 14, N-methyl-3-[5-(morpholin-4-ylmethyl)-1H-indol-2-yl]-1H-indazole-6-carboxamide] |
| > 6.30 | > 6.30 |  | CC(=O)N1CCN(Cc2ccc3[nH]c(-c4n[nH]c5cc(C#N)ccc45)cc3c2)CC1 [Example 1, 3-{5-[(4-acetylpiperazin-1-yl)methyl]-1H-indol-2-yl}-1H-indazole-6-carbonitrile] |
| > 6.30 | > 6.30 |  | N#Cc1ccc2c(-c3cc4cc(CNC5CCC(N)CC5)ccc4[nH]3)n[nH]c2c1 (stereo not drawn) [Example 4, 3-(5-{[(4-aminocyclohexyl)amino]methyl}-1H-indol-2-yl)-1H-indazole-6-carbonitrile] |
|  |  | selectivity for BRSK | CC(=O)N1CCN(Cc2ccc3[nH]c(-c4n[nH]c5cc(-c6nnn[nH]6)ccc45)cc3c2)CC1 [Example 11, 3-{5-[(4-acetylpiperazin-1-yl)methyl]-1H-indol-2-yl}-6-(1H-tetrazol-5-yl)-1H-indazole] |
| > 6.30 | > 6.30 |  | N#Cc1ccc2c(-c3cc4cc(CNCCN)ccc4[nH]3)n[nH]c2c1 [Example 3, 3-(5-{[(2-aminoethyl)amino]methyl}-1H-indol-2-yl)-1H-indazole-6-carbonitrile] |
| > 6.30 | > 6.30 |  | N#Cc1ccc2c(-c3cc4c(CN5CCC(CN)CC5)cccc4[nH]3)n[nH]c2c1 [Example 5, 3-(4-{[4-(aminomethyl)piperidin-1-yl]methyl}-1H-indol-2-yl)-1H-indazole-6-carbonitrile] |
|  |  | selectivity for BRSK | CS(=O)(=O)N1CCN(Cc2ccc3[nH]c(-c4n[nH]c5cc(-c6nnn[nH]6)ccc45)cc3c2)CC1 [Example 12, 3-(5-{[4-(methylsulfonyl)piperazin-1-yl]methyl}-1H-indol-2-yl)-6-(1H-tetraazol-5-yl)-1H-indazole] |

From US20090192155A1, “Identification of Compounds Suitable for Treating Ad” (priority 2006, published 2009)
